Here are results for three molecules from patent US20150307625A1 (Bayer, published 2015).

Results are given in words; binding and its absence hold for the method and conditions named. For some of these results: Binding can be weak; no strength is given.

In test [1] the target is rabbit activated Protein C (rabbit). Nature of the test: direct ELISA, hIgG1.
For test [2], the target named is dog activated Protein C (dog). Nature of the test: direct ELISA, hIgG1.
Test [3] has as its target rabbit activated Protein C (rabbit). Put plainly: direct ELISA, IgG at 20 nM.
Test [4] concerns the target dog activated Protein C (dog). Put plainly: direct ELISA, IgG at 20 nM.
The target of test [5] is mouse activated Protein C (mouse). Put plainly: direct ELISA, IgG at 20 nM.
Test [6] deals with rabbit activated Protein C (rabbit). Nature of the test: direct ELISA, antigen coated at 1 ug/ml, IgG at 20 nM, anti-human IgG-HRP, AmplexRed (RFU).
Test [7] deals with dog activated Protein C (dog). The description is as above.
Test [8] has as its target mouse activated Protein C (mouse). Described as above.
In test [9] the target is activated Factor IX. Put plainly: direct ELISA, FIXa coated at 5 ug/ml, Fab at 20 nM, anti-human Fab-HRP, AmplexRed (RFU).
Test [10] has as its target dog activated Protein C (dog). Nature of the test: direct ELISA, Fab at 20 nM.
Test [11] concerns the target mouse activated Protein C (mouse). Nature of the test: direct ELISA, Fab at 20 nM.
Test [12] deals with activated Factor VII. Nature of the test: direct ELISA, FVIIa coated at 10 ug/ml, Fab at 20 nM, anti-human Fab-HRP, AmplexRed (RFU).
Test [13] addresses dog activated Protein C (dog). Nature of the test: direct ELISA, antigen coated at 100 ng/well, Fab at 20 nM (1 ug/ml), anti-human Fab-HRP, AmplexRed (RFU).
Test [14] concerns the target mouse activated Protein C (mouse). Described as above.
Test [15] addresses activated Factor X. Put plainly: direct ELISA, FXa coated at 10 ug/ml, Fab at 20 nM, anti-human Fab-HRP, AmplexRed (RFU).
Test [16] addresses activated Factor VII. Put plainly: direct ELISA, antigen coated.
Test [17] deals with activated Factor IX. Nature of the test: direct ELISA, antigen coated.
In test [18] the target is activated Factor X. Nature of the test: direct ELISA, antigen coated.
The target of test [19] is dog activated Protein C (dog). Nature of the test: species aPC ELISA.

B1: T46J23-hIgG1 (antibody, V domains shown)
VH: EVQLLESGGGLVQPGGSLRLSCAASGFTFGNHWMTWVRQAPGKGLEWVSGVSWNGSRTHYADSVKGRFTISRDNSKNTLYLQMNSLRAEDTAVYYCALTGRSGWMRFPNWFDPWGQGTLVTVTS
VL: LTQPPSASGTPGQRVTISCTGTSSNIGAGYDVHWYQQLPGTAPKLLIYDNNNRPSGVPDRFSGSKSGTSASLAISGLRSEDEADYYCAAWDDSLNGVVFGGGTKLTVLG
notes: also called T46J23-IgG
For the molecule B1, the binding entry in [1], in [2], in test [3], in test [4], in test [5] and in [6] was “binds” in each case. Also, the binding result in test [7] and in test [8] was “binds” each time.

B2: T46J23 Fab (Fab, V domains shown)
VH: EVQLLESGGGLVQPGGSLRLSCAASGFTFGNHWMTWVRQAPGKGLEWVSGVSWNGSRTHYADSVKGRFTISRDNSKNTLYLQMNSLRAEDTAVYYCALTGRSGWMRFPNWFDPWGQGTLVTVTS
VL: LTQPPSASGTPGQRVTISCTGTSSNIGAGYDVHWYQQLPGTAPKLLIYDNNNRPSGVPDRFSGSKSGTSASLAISGLRSEDEADYYCAAWDDSLNGVVFGGGTKLTVLG
notes: Human Fab (lambda), expressed in E. coli
For B2, the binding entry with activated Factor IX [9] is recorded as “no binding (tested: 20 nM)”; in [10], “binds”; in test [11], “binds”; with activated Factor VII [12], “no binding (tested: 20 nM)”; in test [13], “binds”; in test [14] it was “binds”. The binding entry in the test with activated Factor X [15] is listed as “no binding (tested: 20 nM)”; in the test with activated Factor VII [16], “no binding (tested: 20 nM)”; with activated Factor IX [17] it was “no binding (tested: 20 nM)”; with activated Factor X [18], “no binding (tested: 20 nM)”; in test [19], “binds”.

B3: C25K23 Fab (Fab, V domains shown)
VH: EVQLLESGGGLVQPGGSLRLSCAASGFTFSSYWMSWVRQAPGKGLEWVSGVSWNGSRTHYADSVKGRFTISRDNSKNTLYLQMNSLRAEDTAVYYCALTGRSGWMRFPNWFDPWGQGTLVTVTS
VL: QSVLTQPPSASGTPGQRVTISCTGSSSNIGAAYDVHWYQQLPGTAPKLLIYGNNKRPSGVPDRFSGSKSGTSASLAISGLRSEDEADYYCQSYDSSLSGSVFGGGTKLTVLG
notes: Human Fab (lambda) from a phage library, expressed in E. coli; also called Fab C25K23
As to B3, the binding result with activated Factor IX [9] is “no binding (tested: 20 nM)”; in test [10], “binds”; in the test with activated Factor VII [12], “no binding (tested: 20 nM)”; in test [13], “binds”; with activated Factor X [15] it was “no binding (tested: 20 nM)”; in the test with activated Factor VII [16], “no binding (tested: 20 nM)”. In addition, the figures for the binding entry (with activated Factor IX [17]; in the test with activated Factor X [18]; in [19]) were “no binding (tested: 20 nM)”, “no binding (tested: 20 nM)” and “binds”, respectively.
